PubChem BioAssay AID743454, Peter MacCallum Cancer Centre | 2014
The deposit covers about 18,000 reagents; below is an unselected part. 450 of all reagents (2.5%) count as active. 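Single biological run; no consistent viability z cut-off exists, so the class columns, not z-scores, define the calls.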 Unmarked entries are inactive.

Screen: 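Search for knock-downs that restore vorinostat killing in resistant colon cancer cells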 (primary screen)
System: human HCT116-VR colon cancer cells, selected for vorinostat resistance
Reagents: siRNA pool against human genes, 40 nM siRNA pool
Timing: vorinostat for 24 h, read-out about 72 h after transfection
Challenge: vorinostat at 2.5 µM final
Measurement: 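Cell viability by CellTiter-Fluor and caspase 3/7 activity by luminescence, each scaled to mock wells per plate, duplicates averaged, then robust z-scored over all plates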
Direction: viability robust z-score: higher = more viable cells than screen typical; caspase robust z-score: higher = more caspase 3/7 activity than screen typical
Active means: 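a knock-down is a hit when classed RV1 or RV2 for lowered viability, or CA1 or CA2 for caspase activation; those lethal without drug were dropped; hits were retested singly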

Knock-down of SLC24A1 (GeneID 9187) resulted in: viability hit class no change; caspase hit class no change; viability robust z-score 0.96; caspase robust z-score -0.2.
SDSL (GeneID 113675) scored viability hit class no change; caspase hit class no change; viability robust z-score 0.91; caspase robust z-score 0.72.
Depletion of BEND3 (GeneID 57673) gave: viability hit class no change; caspase hit class no change; viability robust z-score -0.88; caspase robust z-score 1.46.
For ZNF280D (GeneID 54816) the deposit lists viability hit class no change; caspase hit class no change; viability robust z-score -0.14; caspase robust z-score -0.74.
Against BRCA2 (GeneID 675) the deposit lists viability hit class no change; caspase hit class no change; viability robust z-score 0.78; caspase robust z-score 0.44.
GLIPR1 (GeneID 11010) scored viability hit class no change; caspase hit class no change; viability robust z-score 0.32; caspase robust z-score -0.38.
ZFYVE16 (GeneID 9765) scored viability hit class no change; caspase hit class no change; viability robust z-score -2.03; caspase robust z-score -0.32.
IL4 (GeneID 3565) gave viability hit class no change; caspase hit class no change; viability robust z-score -0.87; caspase robust z-score 3.57.
With knock-down of ODR4 (GeneID 54953), the record shows viability hit class no change; caspase hit class no change; viability robust z-score -0.24; caspase robust z-score -1.25.
Silencing of TNC (GeneID 3371) gave: viability hit class no change; caspase hit class no change; viability robust z-score -0.1; caspase robust z-score -0.26.
RBM23 (GeneID 55147) scored viability hit class no change; caspase hit class no change; viability robust z-score -1.48; caspase robust z-score 1.29.
PKD2L1 (GeneID 9033) showed viability hit class no change; caspase hit class no change; viability robust z-score 0.4; caspase robust z-score 2.88.
RASSF8 (GeneID 11228) gave viability hit class no change; caspase hit class no change; viability robust z-score -2.29; caspase robust z-score -0.02.
For VPS37A (GeneID 137492), the entry reads viability hit class no change; caspase hit class no change; viability robust z-score 0.62; caspase robust z-score -0.24.
For CRAT (GeneID 1384), the values are viability hit class no change; caspase hit class no change; viability robust z-score 0.63; caspase robust z-score 1.7.
SMARCE1 (GeneID 6605) gave viability hit class no change; caspase hit class no change; viability robust z-score -1.71; caspase robust z-score 1.83.
After knock-down of RETSAT (GeneID 54884) the results were viability hit class no change; caspase hit class no change; viability robust z-score -1.1; caspase robust z-score -0.48.
Silencing of NANS (GeneID 54187) gave: viability hit class no change; caspase hit class no change; viability robust z-score -2.49; caspase robust z-score 1.34.
After knock-down of VGLL1 (GeneID 51442), the screen gave viability hit class no change; caspase hit class no change; viability robust z-score -0.2; caspase robust z-score 2.46.
After knock-down of PIK3CB (GeneID 5291), the record shows viability hit class no change; caspase hit class no change; viability robust z-score -1.15; caspase robust z-score -0.31.
CCDC134 (GeneID 79879) showed viability hit class no change; caspase hit class no change; viability robust z-score -2.09; caspase robust z-score -0.06.

Reprinted from above (2 entries):
CRAT (GeneID 1384) → viability hit class = no change; caspase hit class = no change; viability robust z-score = 0.63; caspase robust z-score = 1.7
SMARCE1 (GeneID 6605) → viability hit class = no change; caspase hit class = no change; viability robust z-score = -1.71; caspase robust z-score = 1.83
